Reference: the supplement of paper PMC10849652
The list shows a part of the results.

Sequences of proteins named here, by UniProt entry; tags and fusion partners are left off. A change or cut given only in a name is not applied to a line headed by its entry.
UniProt O60496: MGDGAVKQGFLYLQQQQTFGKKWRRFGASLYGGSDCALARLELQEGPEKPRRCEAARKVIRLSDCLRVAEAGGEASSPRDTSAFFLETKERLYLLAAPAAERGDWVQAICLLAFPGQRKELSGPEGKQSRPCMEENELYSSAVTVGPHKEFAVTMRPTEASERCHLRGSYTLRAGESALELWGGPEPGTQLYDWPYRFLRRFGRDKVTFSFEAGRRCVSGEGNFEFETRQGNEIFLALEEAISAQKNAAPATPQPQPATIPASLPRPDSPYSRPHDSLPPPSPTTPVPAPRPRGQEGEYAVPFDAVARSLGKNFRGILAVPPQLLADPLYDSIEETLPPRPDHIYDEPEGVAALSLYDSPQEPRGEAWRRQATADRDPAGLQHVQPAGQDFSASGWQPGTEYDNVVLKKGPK
UniProt Q6P158: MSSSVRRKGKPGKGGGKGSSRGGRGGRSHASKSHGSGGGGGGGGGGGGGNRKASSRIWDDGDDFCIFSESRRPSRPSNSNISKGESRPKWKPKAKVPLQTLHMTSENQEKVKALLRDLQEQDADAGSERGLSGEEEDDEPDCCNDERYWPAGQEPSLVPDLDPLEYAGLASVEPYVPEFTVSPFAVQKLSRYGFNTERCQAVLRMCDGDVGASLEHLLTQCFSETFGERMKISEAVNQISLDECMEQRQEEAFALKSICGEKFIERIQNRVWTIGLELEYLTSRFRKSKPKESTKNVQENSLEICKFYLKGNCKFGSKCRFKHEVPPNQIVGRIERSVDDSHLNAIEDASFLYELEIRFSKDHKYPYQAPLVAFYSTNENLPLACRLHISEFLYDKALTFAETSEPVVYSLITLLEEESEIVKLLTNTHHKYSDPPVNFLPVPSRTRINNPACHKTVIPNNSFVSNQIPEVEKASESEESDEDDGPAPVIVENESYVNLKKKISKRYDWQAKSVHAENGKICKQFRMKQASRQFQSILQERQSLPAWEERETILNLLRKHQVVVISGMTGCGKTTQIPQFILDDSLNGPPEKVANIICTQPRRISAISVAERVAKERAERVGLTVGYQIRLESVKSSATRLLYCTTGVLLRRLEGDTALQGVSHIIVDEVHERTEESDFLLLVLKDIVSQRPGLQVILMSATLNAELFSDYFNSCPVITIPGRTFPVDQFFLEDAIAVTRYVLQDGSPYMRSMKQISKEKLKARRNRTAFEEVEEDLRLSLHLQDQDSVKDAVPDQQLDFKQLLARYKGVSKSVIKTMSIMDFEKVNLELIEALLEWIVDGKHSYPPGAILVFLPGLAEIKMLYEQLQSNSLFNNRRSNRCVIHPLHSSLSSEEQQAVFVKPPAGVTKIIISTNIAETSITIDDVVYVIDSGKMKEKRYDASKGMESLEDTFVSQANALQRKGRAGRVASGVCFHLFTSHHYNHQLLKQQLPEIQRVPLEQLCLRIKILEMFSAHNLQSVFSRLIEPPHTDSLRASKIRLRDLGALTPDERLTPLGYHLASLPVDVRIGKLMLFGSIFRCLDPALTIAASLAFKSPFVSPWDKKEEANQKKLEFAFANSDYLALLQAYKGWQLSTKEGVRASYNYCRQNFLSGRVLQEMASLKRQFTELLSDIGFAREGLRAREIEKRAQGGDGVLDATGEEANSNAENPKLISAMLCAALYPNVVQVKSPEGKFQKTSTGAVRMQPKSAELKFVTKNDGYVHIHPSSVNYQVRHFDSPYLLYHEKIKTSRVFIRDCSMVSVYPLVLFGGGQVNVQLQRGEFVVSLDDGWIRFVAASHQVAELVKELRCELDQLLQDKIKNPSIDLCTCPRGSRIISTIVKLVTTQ
UniProt Q5QJE6: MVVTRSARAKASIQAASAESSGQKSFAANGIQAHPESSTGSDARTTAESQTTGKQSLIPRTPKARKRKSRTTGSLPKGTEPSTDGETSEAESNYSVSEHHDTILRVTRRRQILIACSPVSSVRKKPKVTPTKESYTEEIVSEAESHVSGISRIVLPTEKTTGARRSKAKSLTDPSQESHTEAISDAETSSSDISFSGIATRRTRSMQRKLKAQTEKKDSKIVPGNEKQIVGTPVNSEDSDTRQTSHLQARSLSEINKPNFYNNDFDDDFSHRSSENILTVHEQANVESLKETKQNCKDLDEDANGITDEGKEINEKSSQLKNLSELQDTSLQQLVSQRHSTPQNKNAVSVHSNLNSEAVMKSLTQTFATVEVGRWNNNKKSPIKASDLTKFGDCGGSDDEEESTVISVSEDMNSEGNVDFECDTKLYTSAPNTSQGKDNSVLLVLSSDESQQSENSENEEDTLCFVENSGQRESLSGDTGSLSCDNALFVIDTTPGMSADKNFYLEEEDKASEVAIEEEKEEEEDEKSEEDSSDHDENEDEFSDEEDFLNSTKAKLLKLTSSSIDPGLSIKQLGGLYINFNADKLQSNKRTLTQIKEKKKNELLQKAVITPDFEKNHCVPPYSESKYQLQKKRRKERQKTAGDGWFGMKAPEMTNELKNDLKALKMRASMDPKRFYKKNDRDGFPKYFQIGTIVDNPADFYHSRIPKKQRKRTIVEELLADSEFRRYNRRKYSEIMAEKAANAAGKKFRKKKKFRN
UniProt Q6P3W2: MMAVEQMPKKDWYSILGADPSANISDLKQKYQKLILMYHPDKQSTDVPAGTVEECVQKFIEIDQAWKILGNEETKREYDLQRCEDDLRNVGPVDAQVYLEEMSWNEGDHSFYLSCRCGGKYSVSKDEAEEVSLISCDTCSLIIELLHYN
UniProt P0CG22: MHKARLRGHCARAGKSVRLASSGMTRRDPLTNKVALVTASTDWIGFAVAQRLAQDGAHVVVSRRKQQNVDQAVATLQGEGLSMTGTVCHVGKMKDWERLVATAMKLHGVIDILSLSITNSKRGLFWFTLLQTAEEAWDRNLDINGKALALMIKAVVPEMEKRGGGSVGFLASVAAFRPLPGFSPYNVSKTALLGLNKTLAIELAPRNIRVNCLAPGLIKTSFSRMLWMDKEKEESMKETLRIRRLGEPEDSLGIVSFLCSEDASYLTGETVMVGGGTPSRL
UniProt Q5SXM8: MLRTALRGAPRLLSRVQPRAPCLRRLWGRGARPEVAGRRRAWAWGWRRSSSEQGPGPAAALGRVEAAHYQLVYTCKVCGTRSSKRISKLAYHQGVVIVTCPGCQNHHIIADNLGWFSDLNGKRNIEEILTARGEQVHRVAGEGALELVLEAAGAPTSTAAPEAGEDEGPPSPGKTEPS
UniProt P51530: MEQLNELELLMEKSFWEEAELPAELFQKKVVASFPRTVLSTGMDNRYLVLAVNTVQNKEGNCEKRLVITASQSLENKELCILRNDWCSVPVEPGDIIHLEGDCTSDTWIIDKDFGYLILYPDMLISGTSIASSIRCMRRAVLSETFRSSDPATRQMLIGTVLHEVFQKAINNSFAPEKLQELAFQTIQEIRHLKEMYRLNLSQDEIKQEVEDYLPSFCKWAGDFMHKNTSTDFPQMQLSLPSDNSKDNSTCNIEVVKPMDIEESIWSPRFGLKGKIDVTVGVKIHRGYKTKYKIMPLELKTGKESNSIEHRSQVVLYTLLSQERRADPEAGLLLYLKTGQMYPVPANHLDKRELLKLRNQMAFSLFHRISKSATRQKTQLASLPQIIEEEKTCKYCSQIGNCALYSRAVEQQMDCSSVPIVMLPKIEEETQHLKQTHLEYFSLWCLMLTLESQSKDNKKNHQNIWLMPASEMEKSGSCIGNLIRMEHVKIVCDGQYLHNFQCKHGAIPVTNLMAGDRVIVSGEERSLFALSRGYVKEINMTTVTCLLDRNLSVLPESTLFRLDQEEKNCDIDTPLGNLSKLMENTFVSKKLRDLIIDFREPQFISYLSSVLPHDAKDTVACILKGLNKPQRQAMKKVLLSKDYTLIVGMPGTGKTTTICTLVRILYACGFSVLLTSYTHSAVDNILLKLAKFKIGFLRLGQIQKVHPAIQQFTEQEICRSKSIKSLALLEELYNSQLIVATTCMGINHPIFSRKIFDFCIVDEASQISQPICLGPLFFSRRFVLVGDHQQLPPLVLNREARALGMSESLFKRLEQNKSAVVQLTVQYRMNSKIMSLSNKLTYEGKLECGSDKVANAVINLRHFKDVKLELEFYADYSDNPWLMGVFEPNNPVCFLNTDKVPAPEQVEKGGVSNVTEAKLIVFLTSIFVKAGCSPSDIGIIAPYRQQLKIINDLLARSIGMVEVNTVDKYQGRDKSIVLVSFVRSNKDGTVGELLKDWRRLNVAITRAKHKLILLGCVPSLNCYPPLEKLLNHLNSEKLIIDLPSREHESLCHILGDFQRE
UniProt Q9UPQ8: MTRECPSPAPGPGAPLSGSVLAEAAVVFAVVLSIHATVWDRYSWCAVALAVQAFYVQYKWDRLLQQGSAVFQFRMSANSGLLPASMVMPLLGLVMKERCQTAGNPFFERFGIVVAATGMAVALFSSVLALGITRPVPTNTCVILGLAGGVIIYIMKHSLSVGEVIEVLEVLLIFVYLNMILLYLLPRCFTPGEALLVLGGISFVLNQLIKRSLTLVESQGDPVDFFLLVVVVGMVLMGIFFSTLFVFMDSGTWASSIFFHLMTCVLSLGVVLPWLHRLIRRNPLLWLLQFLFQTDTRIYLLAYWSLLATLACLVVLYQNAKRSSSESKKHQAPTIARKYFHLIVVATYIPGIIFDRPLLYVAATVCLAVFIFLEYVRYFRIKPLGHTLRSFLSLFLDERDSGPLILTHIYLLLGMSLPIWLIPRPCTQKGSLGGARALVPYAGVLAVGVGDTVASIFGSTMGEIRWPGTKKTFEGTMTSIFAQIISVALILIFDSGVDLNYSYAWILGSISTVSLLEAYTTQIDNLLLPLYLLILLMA
UniProt Q7L7V1: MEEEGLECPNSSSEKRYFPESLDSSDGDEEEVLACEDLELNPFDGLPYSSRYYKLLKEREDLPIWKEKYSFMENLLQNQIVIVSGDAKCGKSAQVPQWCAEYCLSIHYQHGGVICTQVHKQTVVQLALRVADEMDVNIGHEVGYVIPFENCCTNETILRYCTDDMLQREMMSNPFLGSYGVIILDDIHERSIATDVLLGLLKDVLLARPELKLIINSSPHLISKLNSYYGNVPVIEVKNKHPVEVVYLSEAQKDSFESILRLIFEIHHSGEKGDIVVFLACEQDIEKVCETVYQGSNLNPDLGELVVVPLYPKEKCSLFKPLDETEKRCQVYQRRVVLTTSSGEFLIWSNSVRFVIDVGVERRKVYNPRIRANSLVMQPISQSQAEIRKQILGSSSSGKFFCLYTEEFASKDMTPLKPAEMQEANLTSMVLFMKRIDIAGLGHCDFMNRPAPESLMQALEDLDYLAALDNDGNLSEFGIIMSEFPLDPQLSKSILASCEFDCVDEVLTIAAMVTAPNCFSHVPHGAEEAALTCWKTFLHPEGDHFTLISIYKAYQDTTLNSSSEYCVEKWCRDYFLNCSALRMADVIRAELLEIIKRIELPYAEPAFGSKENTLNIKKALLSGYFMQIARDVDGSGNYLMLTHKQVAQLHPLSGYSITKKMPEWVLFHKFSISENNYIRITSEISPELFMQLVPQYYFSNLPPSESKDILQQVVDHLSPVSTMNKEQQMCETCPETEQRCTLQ
UniProt Q4LDG9: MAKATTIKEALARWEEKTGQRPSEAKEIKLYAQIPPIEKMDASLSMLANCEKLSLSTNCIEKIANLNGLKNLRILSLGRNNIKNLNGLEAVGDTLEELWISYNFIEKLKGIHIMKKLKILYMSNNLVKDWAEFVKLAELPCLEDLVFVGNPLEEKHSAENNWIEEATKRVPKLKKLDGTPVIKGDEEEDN
UniProt Q15398: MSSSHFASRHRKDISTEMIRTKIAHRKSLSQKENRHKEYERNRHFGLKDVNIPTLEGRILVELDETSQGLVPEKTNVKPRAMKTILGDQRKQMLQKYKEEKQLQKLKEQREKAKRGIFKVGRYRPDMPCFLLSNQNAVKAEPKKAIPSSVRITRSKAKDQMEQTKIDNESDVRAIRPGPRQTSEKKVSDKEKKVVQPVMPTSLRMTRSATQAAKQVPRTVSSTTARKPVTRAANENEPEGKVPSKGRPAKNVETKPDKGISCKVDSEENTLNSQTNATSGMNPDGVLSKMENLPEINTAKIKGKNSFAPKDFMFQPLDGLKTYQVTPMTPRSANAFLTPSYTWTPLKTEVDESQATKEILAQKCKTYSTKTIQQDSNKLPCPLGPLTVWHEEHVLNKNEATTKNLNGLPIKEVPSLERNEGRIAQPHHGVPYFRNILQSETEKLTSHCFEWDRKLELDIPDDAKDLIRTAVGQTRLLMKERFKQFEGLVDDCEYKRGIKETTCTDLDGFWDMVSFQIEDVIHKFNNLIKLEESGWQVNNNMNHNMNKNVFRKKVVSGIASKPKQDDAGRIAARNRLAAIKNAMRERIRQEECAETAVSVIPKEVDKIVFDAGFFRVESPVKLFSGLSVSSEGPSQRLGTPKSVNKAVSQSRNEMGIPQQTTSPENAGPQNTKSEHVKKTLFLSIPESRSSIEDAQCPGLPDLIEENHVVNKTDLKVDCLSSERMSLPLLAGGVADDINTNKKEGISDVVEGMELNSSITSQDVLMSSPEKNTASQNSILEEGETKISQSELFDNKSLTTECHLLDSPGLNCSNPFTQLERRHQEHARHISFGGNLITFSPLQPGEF

Tests used:
Experiment in all cases: log2 fold change, soluble protein after heating vs DMSO (PISA); higher = thermal stabilisation; K562 lysate, 10 uM; active = over 0.2 and 3.5 SD of the protein, either way, in both replicates (recomputed)
[1] = compound: CS(=O)(=O)CCNCc1ccc(-c2ccc3ncnc(Nc4ccc(OCc5cccc(F)c5)c(Cl)c4)c3c2)o1 [lapatinib]
How it was run: (§1)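 Thermal stability, expressed as log-two fold change relative to solvent controls, is given from duplicates. Crude K562 extract in PBS pH 7.4 with 1 mM MgCl2, at 1 mg/mL protein, was treated with 10 μM compound for 30 min and heated in aliquots for 3 min across 48°C-58°C. After pooling, adjustment to 0.5% NP-40 at 4°C and centrifugation at 21,000xg for 90 min, supernatant protein was measured by TMTpro 16plex LC-MS/MS with channel sums equalised.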

[2] = compound: CS(=O)(=O)N1CCN(Cc2cc3nc(-c4cccc5[nH]ncc45)nc(N4CCOCC4)c3s2)CC1 [pictilisib]
How it was run: as §1

[3] = compound: C[C@H](C1=CC=C(C=C1)C(=O)NC2=C3C=CNC3=NC=C2)N
How it was run: as §1

[4] = compound: Cc1cc(Nc2cc(CN3CCOCC3)c3nc(C)c(Cc4ccc(Cl)cc4F)n3n2)n[nH]1 [gandotinib]
How it was run: as §1

[5] = compound: Cc1cc(Nc2cc(N3CCN(C)CC3)nc(Sc3ccc(NC(=O)C4CC4)cc3)n2)n[nH]1 [tozasertib]
How it was run: as §1

[6] = compound: Cc1ccc(NC(=O)c2ccc(CN3CC[C@H](N(C)C)C3)c(C(F)(F)F)c2)cc1Nc1nccc(-c2cncnc2)n1 [bafetinib]
How it was run: as §1

[7] = compound: Cc1cccc(CC(=O)N2CCc3c2ccc(-c2cn(C)c4ncnc(N)c24)c3F)n1
How it was run: as §1

[8] = compound: Cc1cn(-c2cc(NC(=O)c3ccc(C)c(Nc4nccc(-c5cccnc5)n4)c3)cc(C(F)(F)F)c2)cn1 [nilotinib]
How it was run: as §1

[9] = compound: Cc1nc(Nc2n[nH]c3c2CN(C(=O)N[C@H](CN(C)C)c2ccccc2)C3(C)C)c2sccc2n1
How it was run: as §1

[10] = compound: Cc1ncc(-c2ccnc(Nc3ccc(S(C)(=O)=O)cc3)n2)n1C(C)C
How it was run: as §1

[11] = compound: Cn1cncc1[C@@](N)(c1ccc(Cl)cc1)c1ccc2c(c1)c(-c1cccc(Cl)c1)cc(=O)n2C [tipifarnib]
How it was run: as §1

[12] = compound: NC(=O)c1cnc(N[C@@H]2CCCC[C@@H]2N)nc1Nc1cccc(-n2nccn2)c1
How it was run: as §1

[13] = compound: C[C@@H](Oc1cc(-c2cnn(C3CCNCC3)c2)cnc1N)c1c(Cl)ccc(F)c1Cl [crizotinib]
How it was run: as §1

[14] = compound: C[C@H](Nc1ncnc2nc[nH]c12)c1cc2cccc(Cl)c2c(=O)n1-c1ccccc1 [duvelisib]
How it was run: as §1

[15] = compound: Cc1ccc(-n2nc(C(C)(C)C)cc2NC(=O)Nc2ccc(OCCN3CCOCC3)c3ccccc23)cc1 [doramapimod]
How it was run: as §1

[16] = compound: Cc1nc(Nc2ncc(C(=O)Nc3c(C)cccc3Cl)s2)cc(N2CCN(CCO)CC2)n1 [dasatinib]
How it was run: as §1

[17] = compound: Cn1cc(-c2ccc3c(c2)CCN3C(=O)Cc2cccc(C(F)(F)F)c2)c2c(N)ncnc21
How it was run: as §1

[18] = compound: Cn1cc(CNCC2CCN(c3ncc(C(=O)NO)cn3)CC2)c2ccccc21 [quisinostat]
How it was run: as §1

[19] = compound: NC(=O)Nc1cc(-c2cccc(F)c2)sc1C(=O)N[C@H]1CCCNC1
How it was run: as §1

[20] = compound: NC1(c2ccc(-c3nc4ccn5c(=O)[nH]nc5c4cc3-c3ccccc3)cc2)CCC1
How it was run: as §1

Target | log2 fold change [1] | log2 fold change [2] | log2 fold change [3] | log2 fold change [4] | log2 fold change [5] | log2 fold change [6] | log2 fold change [7] | log2 fold change [8] | log2 fold change [9] | log2 fold change [10] | log2 fold change [11] | log2 fold change [12] | log2 fold change [13] | log2 fold change [14] | log2 fold change [15] | log2 fold change [16] | log2 fold change [17] | log2 fold change [18] | log2 fold change [19] | log2 fold change [20]
DNPEP (UniProt C9JBE1) | inactive: -0.035 | inactive: 0.049 | inactive: -0.306 | inactive: 0.105 | inactive: 0.082 | inactive: -0.239 | inactive: 0.171 | inactive: -0.049 | inactive: -0.006 | inactive: 0.018 | inactive: -0.132 | inactive: 0.019 | – | – | – | – | – | – | – | –
DNM2 isoform 4 (UniProt P50570) | inactive: 0.031 | – | inactive: -0.16 | inactive: -0.134 | inactive: -0.084 | – | inactive: 0.16 | inactive: 0.078 | inactive: -0.018 | inactive: -0.03 | inactive: -0.12 | inactive: 0.044 | inactive: 0.014 | inactive: 0.015 | inactive: 0.066 | inactive: -0.095 | inactive: 0.162 | inactive: 0.025 | inactive: 0.088 | inactive: -0.181
DOCK8 (UniProt Q8NF50) | inactive: -0.032 | inactive: -0.011 | inactive: -0.002 | inactive: -0.097 | inactive: 0.042 | inactive: -0.062 | inactive: 0.02 | inactive: -0.007 | inactive: -0.023 | inactive: 0.04 | inactive: -0.033 | inactive: 0.016 | inactive: -0.03 | inactive: 0.003 | inactive: 0.029 | inactive: -0.045 | inactive: 0.058 | inactive: -0.053 | inactive: 0.032 | inactive: 0
DHTKD1 (UniProt Q96HY7) | inactive: 0.021 | inactive: 0.085 | inactive: 0.113 | inactive: 0.04 | – | inactive: -0.12 | inactive: -0.119 | inactive: 0.031 | inactive: -0.173 | inactive: 0.177 | inactive: -0.109 | inactive: 0.054 | inactive: -0.053 | – | inactive: -0.042 | – | – | inactive: -0.114 | inactive: 0.034 | inactive: -0.108
DNAH5 (UniProt Q8TE73) | inactive: 0.043 | inactive: -0.005 | active: -0.422 | inactive: 0.181 | – | inactive: -0.047 | inactive: 0.175 | inactive: -0.029 | inactive: -0.036 | inactive: -0.013 | inactive: -0.128 | inactive: -0.073 | – | inactive: -0.051 | – | inactive: -0.072 | inactive: -0.156 | – | – | inactive: -0.049
DOK2 (UniProt O60496) | inactive: 0.151 | – | inactive: -0.087 | inactive: 0.15 | – | – | inactive: -0.12 | – | – | – | – | inactive: 0.064 | – | – | – | – | – | – | – | inactive: -0.043
DHX57 (UniProt Q6P158) | inactive: -0.012 | inactive: -0.006 | inactive: -0.007 | inactive: -0.034 | inactive: -0.024 | inactive: -0.044 | inactive: 0.027 | inactive: -0.042 | inactive: 0.023 | inactive: 0.067 | inactive: 0.027 | inactive: 0 | inactive: -0.033 | inactive: 0.006 | inactive: 0.005 | inactive: 0.046 | inactive: -0.012 | inactive: -0.035 | inactive: 0.031 | inactive: -0.016
DMAC2 isoform 4 (UniProt Q9NW81) | inactive: -0.084 | inactive: 0.083 | inactive: 0.036 | inactive: -0.033 | inactive: -0.025 | inactive: -0.011 | inactive: -0.059 | inactive: -0.011 | inactive: 0.027 | inactive: -0.121 | inactive: -0.063 | inactive: -0.046 | inactive: -0.029 | – | inactive: -0.177 | – | – | inactive: 0.008 | inactive: 0.099 | inactive: 0.041
DNTTIP2 (UniProt Q5QJE6) | inactive: 0.003 | inactive: -0.066 | inactive: -0.029 | inactive: 0.057 | inactive: 0.052 | inactive: -0.053 | inactive: 0.116 | inactive: -0.116 | inactive: -0.176 | inactive: -0.047 | inactive: -0.057 | inactive: -0.01 | inactive: -0.061 | inactive: 0.071 | inactive: 0.18 | inactive: -0.024 | inactive: -0.121 | inactive: -0.046 | inactive: 0.038 | inactive: 0.009
DNAJC24 (UniProt Q6P3W2) | inactive: 0.006 | – | inactive: 0.152 | inactive: -0.162 | inactive: 0.073 | – | inactive: -0.134 | inactive: 0 | inactive: -0.093 | inactive: 0.02 | inactive: 0.063 | inactive: -0.041 | inactive: 0.074 | inactive: -0.025 | inactive: 0.042 | inactive: 0.062 | inactive: -0.039 | inactive: -0.042 | inactive: 0.054 | inactive: -0.015
DHRS4L1 (UniProt P0CG22) | inactive: 0.027 | inactive: -0.033 | inactive: -0.189 | inactive: -0.228 | inactive: 0.106 | inactive: 0.1 | inactive: -0.014 | – | – | – | – | inactive: 0.018 | inactive: -0.039 | inactive: 0.015 | inactive: 0.005 | inactive: -0.116 | inactive: -0.089 | inactive: -0.065 | inactive: 0.037 | inactive: 0.458
DNTTIP1 (UniProt Q9H147) | inactive: 0.225 | – | inactive: 0.012 | inactive: -0.2 | inactive: -0.055 | – | inactive: 0.022 | – | – | – | – | inactive: 0.148 | – | inactive: 0.107 | – | inactive: -0.041 | inactive: -0.032 | – | – | inactive: -0.077
DOCK2 (UniProt Q92608) | inactive: -0.003 | – | inactive: -0.134 | inactive: 0.008 | inactive: 0.069 | – | inactive: 0.154 | inactive: -0.021 | inactive: 0.078 | inactive: -0.035 | inactive: -0.094 | inactive: -0.081 | inactive: 0.003 | inactive: 0.047 | inactive: 0.047 | inactive: 0.02 | inactive: -0.013 | inactive: -0.056 | inactive: 0.094 | inactive: -0.116
DNLZ (UniProt Q5SXM8) | inactive: 0.152 | – | inactive: 0.08 | inactive: -0.069 | – | – | inactive: 0.048 | inactive: 0.123 | inactive: -0.227 | inactive: 0.235 | inactive: -0.028 | inactive: 0.074 | – | – | – | – | – | – | – | inactive: 0.092
DNA2 (UniProt P51530) | – | – | inactive: 0.052 | inactive: 0.013 | inactive: -0.07 | – | inactive: -0.017 | inactive: 0.011 | inactive: 0.007 | inactive: 0.005 | inactive: -0.04 | – | inactive: -0.046 | inactive: -0.02 | inactive: 0.051 | inactive: 0.069 | inactive: 0.05 | inactive: -0.069 | inactive: 0.043 | inactive: 0.067
DOLK (UniProt Q9UPQ8) | – | – | inactive: -0.098 | inactive: 0.183 | – | – | inactive: -0.02 | – | – | – | – | – | – | – | – | – | – | – | – | –
DNAJC19, A0A2R8Y839 | – | – | – | – | – | – | – | inactive: -0.024 | inactive: -0.159 | inactive: 0.104 | inactive: -0.203 | – | inactive: -0.217 | – | inactive: 0.017 | – | – | inactive: -0.23 | inactive: 0.076 | –
DHX32 (UniProt Q7L7V1) | – | – | inactive: -0.013 | inactive: -0.01 | inactive: 0.108 | – | inactive: -0.077 | inactive: -0.025 | inactive: -0.027 | inactive: -0.044 | inactive: -0.061 | – | inactive: -0.03 | – | inactive: 0.012 | – | – | inactive: -0.015 | inactive: 0.142 | inactive: 0.108
DNAL1 (UniProt Q4LDG9) | – | inactive: -0.242 | inactive: -0.032 | inactive: -0.075 | inactive: 0.058 | inactive: 0.032 | inactive: -0.194 | – | – | – | – | – | inactive: -0.053 | inactive: 0.088 | inactive: -0.009 | inactive: 0.277 | inactive: -0.013 | inactive: 0.039 | inactive: 0.019 | inactive: 0.003
DLGAP5 isoform 3 (UniProt Q15398) | – | inactive: 0.092 | inactive: -0.176 | inactive: 0.05 | – | inactive: 0.031 | inactive: -0.505 | – | – | – | – | – | – | inactive: -0.098 | – | inactive: 0.017 | inactive: 0.18 | – | – | –

Reformatted in markdown: entries from further up.

| Target | log2 fold change [1] | log2 fold change [2] | log2 fold change [3] | log2 fold change [4] | log2 fold change [5] | log2 fold change [6] | log2 fold change [7] | log2 fold change [8] | log2 fold change [9] | log2 fold change [10] | log2 fold change [11] | log2 fold change [12] | log2 fold change [13] | log2 fold change [14] | log2 fold change [15] | log2 fold change [16] | log2 fold change [17] | log2 fold change [18] | log2 fold change [19] | log2 fold change [20] |
| --- | --- | --- | --- | --- | --- | --- | --- | --- | --- | --- | --- | --- | --- | --- | --- | --- | --- | --- | --- | --- |
| DNAJC24 (UniProt Q6P3W2) | inactive: 0.006 | – | inactive: 0.152 | inactive: -0.162 | inactive: 0.073 | – | inactive: -0.134 | inactive: 0 | inactive: -0.093 | inactive: 0.02 | inactive: 0.063 | inactive: -0.041 | inactive: 0.074 | inactive: -0.025 | inactive: 0.042 | inactive: 0.062 | inactive: -0.039 | inactive: -0.042 | inactive: 0.054 | inactive: -0.015 |
| DHRS4L1 (UniProt P0CG22) | inactive: 0.027 | inactive: -0.033 | inactive: -0.189 | inactive: -0.228 | inactive: 0.106 | inactive: 0.1 | inactive: -0.014 | – | – | – | – | inactive: 0.018 | inactive: -0.039 | inactive: 0.015 | inactive: 0.005 | inactive: -0.116 | inactive: -0.089 | inactive: -0.065 | inactive: 0.037 | inactive: 0.458 |
